{"source": "paper doi:10.1101/2020.03.11.987446", "binders": {"B1": {"name": "ColBD-Twitch (N-terminal 6xHis tag, vWF collagen-binding peptide … and Twitch-2B 54S+) (peptide)", "chain": "WREPSFMALS"}}, "key": {"[1]": {"target": "collagen I (collagen I pre-coated 96-well plates, Greiner 655956)", "test": "fluorescence of protein bound to coated microplates"}, "[2]": {"target": "collagen IV from human placenta (human)", "test": "fluorescence"}}, "note": "No constants are given. Whether binding was seen depends on the method and setting. A result given as binding can be weak or reduced; the word gives no strength. Sequences can lack the tags named with a protein.", "data": [{"binder": "B1", "values": [{"measurement": "binding", "setting": "[1]", "value": "binds"}, {"measurement": "binding", "setting": "[2]", "value": "binds"}]}]}
